# Test results taken from PubChem BioAssay AID504351 (Broad Institute, 2011).
# Inconclusive results, whose numbers are uncertain, are shown with a selection of clear calls. Calls of active or inactive are those of the source.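 How the source made its calls: active means every replicate test active, meaning falling signal with half-maximal potency at most ten times the top valid dose; inconclusive means replicate test calls disagree with each other; inactive means every replicate test inactive, including signal rising instead.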
# Assay: secreted streptokinase activity reduction in group A streptococci – OD405 absorbance, dry powder, set 3, dose response (AID 504351)
# Settings: S. pyogenes UMAA2166, streptokinase activity in supernatant, OD405, 6 h; at 50 µM (top of the series)
# Method in brief: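 Timing: 6 h compound exposure of cultures at 37 °C. Assay system: group A Streptococcus cultures. Dosing: multi-point serial dilution series of compounds.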
row,SMILES,"activity change, negative = inhibition"
1,COc1ccc(Sc2ccc(NC(=O)c3ccccc3OC(F)(F)F)cc2C#N)cc1,inconclusive: -28%
2,COc1ccc(Sc2ccc(NC(=O)Nc3ccccc3Cl)cc2C#N)cc1,inconclusive: -21.7%
3,O=C(c1ccccc1Cl)n1c2ccccc2c2ccccc21,inconclusive: -25.3%
4,CCOc1nc(-c2ccccc2)cc2ccccc12,inconclusive: -50.6%
5,O=C(c1ccccc1F)n1c2ccccc2c2ccccc21,inconclusive: -41.2%
6,CCCOc1ccc(-c2nc(OCCC)c3ccccc3n2)cc1,inconclusive: -34.4%
7,CCCOc1ccc(-c2nc(OCC(C)(C)C)c3ccccc3n2)cc1,inconclusive: -42.6%
8,COc1ccc(Sc2ccc(NC(=O)c3ccccc3OC)cc2C#N)cc1,inactive: -10%
9,Cc1ccc(C(=O)n2c(C)c(C)c3ccccc32)cc1,inconclusive: -66.3%
10,CCOc1nc(-c2cccc(F)c2)nc2ccccc12,inconclusive: -52.3%
11,COc1ccc(Sc2ccc(NC(=O)c3ccccc3C(F)(F)F)cc2C#N)cc1,inconclusive: -36.7%
12,COc1cccc(-c2nc(OC)c3ccccc3n2)c1,inactive: -5.23%
13,COc1ccc(Sc2ccc(NC(=O)c3ccccc3F)cc2C#N)cc1,inconclusive: -34.6%
14,O=C(c1ccccc1)n1c2ccccc2c2ccccc21,inconclusive: -23.9%
15,COc1ccc(Sc2ccc(NC(=O)c3ccc(OC)cc3)cc2C#N)cc1,inactive: -1.32%
16,CCCCOc1nc(-c2ccc(OCCC)cc2)nc2ccccc12,inconclusive: -25.3%
17,Cc1ccc(C(=O)n2c3ccccc3c3ccccc32)cn1,inactive: -22.7%
18,COc1ccc(Sc2ccc(NCc3ccccc3Cl)cc2C#N)cc1,inactive: -5.27%
19,COc1ccc(Sc2ccc(N(C(=O)c3ccccc3Cl)C(=O)c3ccccc3Cl)cc2C#N)cc1,inactive: 0.307%
20,COc1ccc(Sc2ccc(NC(=O)c3ccccc3)cc2C#N)cc1,inconclusive: -23.3%
21,Cc1ccc(C(=O)n2c3ccccc3c3cccnc32)cc1,inactive: -6.45%
22,CCCOc1ccc(-c2nc(Oc3ccc(F)cc3)c3ccccc3n2)cc1,inactive: 3.09%
23,O=c1[nH]c(-c2cccc(F)c2)nc2ccccc12,inactive: 7.01%
24,CCOc1nc(-c2ccc(Cl)cc2)nc2ccccc12,inconclusive: -40.4%
25,O=C(c1cccc(F)c1)n1c2ccccc2c2ccccc21,inconclusive: -50.9%
26,O=C(c1ccc(N2CCOCC2)cc1)n1c2ccccc2c2ccccc21,inactive: 4.63%
27,COc1ccc(C(=O)n2c3ccccc3c3ccccc32)cc1,inactive: -8.98%

# Exported bar-delimited: entries from further up.
row | SMILES | activity change, negative = inhibition
15 | COc1ccc(Sc2ccc(NC(=O)c3ccc(OC)cc3)cc2C#N)cc1 | inactive: -1.32%
18 | COc1ccc(Sc2ccc(NCc3ccccc3Cl)cc2C#N)cc1 | inactive: -5.27%
